Values of other authors, collected in patent US20260101892A1, “METHOD TO INHIBIT PROLIFERATION OF A PHYTOPATHOGEN ON PLANTS AND COMPOSITIONS USED FOR THIS PURPOSE” (CYSBIO APS, priority 2022, published 2026).
For at least one compound, name, drawing or mass did not settle the structure.

System: E. coli
Conditions: at the concentrations tested by Catto et al. (0.183-1830 μM); cited from earlier work

O=C(O)/C=C/c1ccc(O)cc1 [coumaric acid]
biocidal effect: displayed biocidal activity
